Structures are written as SMILES. Among all 1,200 compounds or so, fewer than 10 were called active. Calls come from the whole dose curve; as a rule, active = well fitted curve in the direction sought with a large enough effect; inconclusive = small, poorly fitted or top-dose-only effect, or another doubt; inactive = no such curve, though single readings can be large or run the other way. This is one part of the list.

This assay is described as follows: Confirmatory qHTS assay for inhibitors of Activation Induced Cytidine Deaminase (AID): UDG signals. Note: 0% is about no effect. The conditions noted are these: UDG coupled enzyme activity counter-screen; at 115 µM (top of the series) unless noted. Put shortly:
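Fluorescence at 560 nm excitation/665 nm emission reports UDG activity, read after NaOH quench of a 4 h room-temperature reaction of DJC20/DJC23 substrates with AID (1 uM, 4/3x) and UDG (2 U/mL, 4/3x); compounds at 7.32 nM - 114 uM final, preincubated 10 min.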
In general terms: qHTS replaces the single test concentration by a dilution series.
Turning to `COc1cccc(CSc2nc(-c3ccccc3OC)nc3c2Cc2c(CO)cnc(C)c2O3)c1`, the activity change, negative = inhibition is inactive: -5.53%.

In the case of `Cc1cc(C)cc(-n2ccnc2SCC(=O)Nc2ccc(C)c(Cl)c2)c1`, the activity change, negative = inhibition is inactive: -9.67%.

In the case of `CCn1cc2nc(SCc3cccc(F)c3)n(CCc3ccccc3)c(=O)c2n1`, the activity change, negative = inhibition is inactive: -8.95%.

Consider `COc1ccc(Br)cc1CNC(=O)c1cnc2sc(N3CCCCCC3)nn2c1=O`, for which the activity change, negative = inhibition was inactive: 12.5%.

As for `COc1ccccc1Nc1c2c(nc3ccc(NC(=O)/C=C/c4cc(OC)c(OC)c(OC)c4)cc13)CCCC2`, the activity change, negative = inhibition was inactive: -6.15%.

On to `COc1ccc(CCNC(=O)c2c[nH]n3c(=O)c(Cc4ccccc4Cl)c(C)nc23)cc1OC`, for which the activity change, negative = inhibition was inactive: 0.446%.

Regarding `O=C(NCC1CCN(Cc2ccccc2Cl)CC1)c1cc2ccc3cccnc3c2[nH]1`, the activity change, negative = inhibition is inactive: -2.88%.

Consider `CCc1ccc(NC(=O)c2ccc3c(O)c(S(=O)(=O)c4ccccc4)c(=O)[nH]c3c2)cc1`, for which the activity change, negative = inhibition was inactive: 12.1%.

Take `[N-]=[N+]=Nc1ccc(C(=O)CSC[C@H](NC(=O)CC[C@H](N)C(=O)O)C(=O)NCC(=O)O)cc1`: the activity change, negative = inhibition is inactive: 11.8%.

On to `COc1cccc(C(=O)Nc2nc3nc(C)c(Cc4ccccc4)c(=O)n3[nH]2)c1`, for which the activity change, negative = inhibition was inactive: 12.2%.

As for `Cc1ccc2oc(C(=O)NCC(c3ccc(Cl)cc3)N3CCOCC3)c(C)c2c1` (stereo unspecified), the activity change, negative = inhibition was inactive: -1.52%.

As to `COc1ccccc1CNC(=O)CSc1nc2nc(C)c(Cc3ccccc3C)c(C)n2n1`, the activity change, negative = inhibition was inactive: 7.22%.

Regarding `CC(C)(C)c1ccc(C(=O)N2CCCC(c3nc4c(nnn4Cc4cccc(F)c4)c(=O)[nH]3)C2)cc1` (stereo unspecified), the activity change, negative = inhibition is inactive: -0.802%.

Consider `Cc1ccccc1Nc1c(-c2ccc(N3CCOCC3)cc2)nc2cccc(C)n12`, for which the activity change, negative = inhibition was inactive: -1.27%.

In the case of `Cc1cccc(-n2c3nc(=O)[nH]c(=O)c-3cc3ccc(Cl)cc32)c1C`, the activity change, negative = inhibition is inactive: -6.3%.

Take `COc1ccc(OC)c(-c2noc(N3CCN(c4cccc(C(F)(F)F)c4)CC3)n2)c1`: the activity change, negative = inhibition is inactive: -11.7%.

On to `CCC(=O)Oc1c(Sc2ccc(C)cc2)c(C)nn1-c1ccccc1`, for which the activity change, negative = inhibition is inactive: 5.23%.

On to `CCOc1ccccc1C(=O)N1CCc2cc(OC)c(OC)cc2C1COc1ccc(OC)cc1` (stereo unspecified), for which the activity change, negative = inhibition is inactive: -15.4%.

As to `COc1ccc(CN(Cc2ccco2)C(=O)COc2ccccc2Cl)cc1`, the activity change, negative = inhibition was inactive: -7.93%.

As to `N=c1n(CCN2CCCCC2)c2ccccc2n1CC(O)COc1ccccc1` (stereo unspecified), the activity change, negative = inhibition was inactive: 1.57%.

On to `Cc1ccc(Cl)cc1N1CCN(CCCNC(=O)c2ccc3nc(N4CCCCC4)sc3c2)CC1`, for which the activity change, negative = inhibition was inactive: -7.12%.

Regarding `CC(C)Oc1ccc(C(=O)N(Cc2ccco2)Cc2cccs2)cc1`, the activity change, negative = inhibition is inactive: -1.32%.

Turning to `CCn1cc2nc(SCC(=O)Nc3ccccc3C(F)(F)F)n(Cc3ccc(C)cc3)c(=O)c2n1`, the activity change, negative = inhibition was inactive: 6.24%.

In the case of `CC1Cc2ccccc2N1S(=O)(=O)c1nnc(NC(=O)c2cccc(F)c2)s1` (stereo unspecified), the activity change, negative = inhibition is inactive: 9.84%.

In the case of `Cn1nc(C(=O)NCc2ccccc2Cl)c2c1-c1ccccc1S(=O)(=O)C2`, the activity change, negative = inhibition is inactive: -8.2%.

With `Cc1cccc(N(CC(=O)NCCSCc2cccc(Cl)c2)S(=O)(=O)c2ccccc2)c1C`, the activity change, negative = inhibition was inactive: -4.72%.

For the compound `COc1ccc(C(C)=O)cc1CSc1nc(NCCc2ccccc2)c2ccccc2n1`, the activity change, negative = inhibition was inactive: 1.08%.

For `COc1ccc(-c2nn(-c3ccccc3)cc2C2NC(=O)NC(C)=C2C(=O)OC(C)C)cc1Cl` (stereo unspecified), the activity change, negative = inhibition was inactive: -13.1%.

As to `Cc1ccc(C(=O)c2cn(Cc3ccccc3)c3ccccc3c2=O)cc1`, the activity change, negative = inhibition is inactive: 0.0583%.

Turning to `CCc1cccc(C)c1Nc1c(-c2ccc(N(C)C)cc2)nc2cnccn12`, the activity change, negative = inhibition was inactive: -12.5%.

As for `Cc1ccc(NC(=O)c2ccc(N(Cc3ccccc3)S(C)(=O)=O)cc2)cc1`, the activity change, negative = inhibition is inactive: -0.462%.

`CCc1ccc(S(=O)(=O)c2nnn3c2nc(N2CCC(C(N)=O)CC2)c2cc(Cl)ccc23)cc1`: the activity change, negative = inhibition is inactive: 0.422%.

As to `COC(=O)c1ccc(NC(=O)NC(C)c2c(-n3cccc3)sc(C)c2C)cc1` (stereo unspecified), the activity change, negative = inhibition was inactive: 3.35%.

As for `Cc1cccc(N(CC(=O)N(C)Cc2ccccc2)S(=O)(=O)c2ccccc2)c1C`, the activity change, negative = inhibition was inactive: -11.2%.

As to `Cc1ccc(CNC(=O)c2c[nH]n3c(=O)c(Cc4ccc(F)cc4Cl)c(C)nc23)cc1`, the activity change, negative = inhibition was inactive: 1.98%.

Take `CCn1c(=O)c2cc(C(=O)NCCCN(C)Cc3ccccc3)sc2c2ccccc21`: the activity change, negative = inhibition was inactive: -13.6%.

Turning to `CC(C)(C)C1CCc2c(sc(NC(=O)CCC(=O)O)c2C(=O)Nc2ccccc2C(F)(F)F)C1` (stereo unspecified), the activity change, negative = inhibition was inactive: 0.973%.

On to `FC(F)(F)c1cccc(N2CCN(Cc3nnc(-c4ccc5c(c4)OCO5)o3)CC2)c1`, for which the activity change, negative = inhibition is inactive: -14.3%.

Consider `Cc1ccc(Cl)cc1N1CCN(C(=O)c2cccn2-c2nnc(N3CCCC3)s2)CC1`, for which the activity change, negative = inhibition was inactive: -3.8%.

Turning to `CCOC(=O)c1c(Nc2cc(C)cc(C)c2)nnc(-c2ccccc2)c1-c1ccccc1`, the activity change, negative = inhibition is inactive: 7.93%.

For `COc1ccccc1C(=O)Nc1nc2nc(C)c(Cc3ccccc3)c(=O)n2[nH]1`, the activity change, negative = inhibition was inactive: 8.06%.

`CCOc1ccccc1C(=O)N(Cc1cccs1)c1ccc(Cl)cc1`: the activity change, negative = inhibition was inactive: -9.7%.

In the case of `Cc1ccc(C)c(CN2C(=O)c3ccccc3S(=O)c3ccc(C(=O)N4CCC(C)CC4)cc32)c1` (stereo unspecified), the activity change, negative = inhibition is inactive: -6.56%.

Regarding `O=C(c1cc2ccc3cccnc3c2[nH]1)N1CCN(c2cccc(C(F)(F)F)c2)CC1`, the activity change, negative = inhibition is inactive: 2.17%.

Consider `COc1ccccc1C(=O)Nc1nc2nc(-c3ccccc3)cc(=O)n2[nH]1`, for which the activity change, negative = inhibition is inactive: -2.77%.

With `COc1cc(NC(=O)CC(c2ccc(C)cc2)N2Cc3ccccc3C2=O)cc(OC)c1` (stereo unspecified), the activity change, negative = inhibition is inactive: -2.44%.

With `Cc1cccc(CNC(=O)c2oc3c(c2C)-c2nn(Cc4cccc(Cl)c4)cc2CC3)c1`, the activity change, negative = inhibition is inactive: -4.44%.

With `Cc1ccc(-c2nc3nc(C)cc(C)n3c2Nc2ccc3c(c2)OCCO3)cc1`, the activity change, negative = inhibition is inactive: -7.65%.

`CCOC(=O)N1CCc2c(sc(NCc3ccc(N(C)C)cc3)c2C(=O)Nc2ccc(OC)cc2)C1`: the activity change, negative = inhibition was inactive: -21.3%.

On to `CC(C)(C)c1ccc(S(=O)(=O)c2cnc(SCC(=O)Nc3ccc4c(c3)OCCO4)[nH]c2=O)cc1`, for which the activity change, negative = inhibition was inactive: 6.06%.

As to `CC(C)c1ccc(NC(=O)CSC2=Nc3ccccc3C3=NC(CCC(=O)NCc4ccco4)C(=O)N23)cc1` (stereo unspecified), the activity change, negative = inhibition was inactive: -3.36%.

These data come from PubChem BioAssay AID1347431 (National Center for Advancing Translational Sciences (NCATS), 2020).
